Laboratory results reported in patent publication US20090220470A1.
Results are given in words; binding and its absence hold for the method and conditions named. Some binding calls cover weakened binding; strength is not graded here. Tags and fused reporters may be left off the sequences shown.

Legend:
[1] = target: Mono-ubiquitin (Sigma Aldrich) (UniProt P0CG48); assay: SPR (BIACORE 3000), GST-p62 UBA polypeptide captured on anti-GST chip, ubiquitin injected
[2] = target: K63 tetra-ubiquitin (Boston Biochem) (UniProt P0CG48); assay: SPR (BiaCore), K63 tetra ubiquitin covalently attached to a CM5 chip, GST-p62 UBA fusion injected; sensorgrams normalized for analyte molecular weight
[3] = target: K63 tetra-ubiquitin (Boston Biochem) (UniProt P0CG48); assay: SPR (BiaCore), K63 tetra ubiquitin covalently attached to CM5 chip, GST fusion injected

Measured: binding

B1: p62×1 (one only p62-UBA domain GST fusion) (protein, not shown: a dimerising Fc or GST; small tags and cut ends)
chain: PRLIESLSQMLSMGFSDEGGWLTRLLQTKNYDIGAALDTIQYSKHPGGGVEGGG
binds: all assays above
